Laboratory results taken from publication PMC5052687.
No constants are given. Whether binding was seen depends on the method and setting. Some results given as binding are weak or reduced against the parent protein; the word gives no strength.

Chains of the proteins cited; added tags and fusions are not shown. Residues count along the entry.
UniProt P16671, residues 35-439: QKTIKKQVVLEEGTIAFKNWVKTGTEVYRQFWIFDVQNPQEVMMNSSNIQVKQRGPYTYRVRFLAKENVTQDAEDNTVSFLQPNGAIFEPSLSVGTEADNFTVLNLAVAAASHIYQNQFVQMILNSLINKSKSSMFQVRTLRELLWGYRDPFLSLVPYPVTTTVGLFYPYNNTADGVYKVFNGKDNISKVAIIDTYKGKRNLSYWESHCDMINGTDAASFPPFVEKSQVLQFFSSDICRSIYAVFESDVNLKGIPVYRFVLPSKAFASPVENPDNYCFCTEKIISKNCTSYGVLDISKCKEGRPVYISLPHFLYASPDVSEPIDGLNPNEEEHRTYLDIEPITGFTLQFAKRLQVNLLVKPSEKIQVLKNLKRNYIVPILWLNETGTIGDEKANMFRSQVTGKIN
UniProt P07996, residues 19-1170: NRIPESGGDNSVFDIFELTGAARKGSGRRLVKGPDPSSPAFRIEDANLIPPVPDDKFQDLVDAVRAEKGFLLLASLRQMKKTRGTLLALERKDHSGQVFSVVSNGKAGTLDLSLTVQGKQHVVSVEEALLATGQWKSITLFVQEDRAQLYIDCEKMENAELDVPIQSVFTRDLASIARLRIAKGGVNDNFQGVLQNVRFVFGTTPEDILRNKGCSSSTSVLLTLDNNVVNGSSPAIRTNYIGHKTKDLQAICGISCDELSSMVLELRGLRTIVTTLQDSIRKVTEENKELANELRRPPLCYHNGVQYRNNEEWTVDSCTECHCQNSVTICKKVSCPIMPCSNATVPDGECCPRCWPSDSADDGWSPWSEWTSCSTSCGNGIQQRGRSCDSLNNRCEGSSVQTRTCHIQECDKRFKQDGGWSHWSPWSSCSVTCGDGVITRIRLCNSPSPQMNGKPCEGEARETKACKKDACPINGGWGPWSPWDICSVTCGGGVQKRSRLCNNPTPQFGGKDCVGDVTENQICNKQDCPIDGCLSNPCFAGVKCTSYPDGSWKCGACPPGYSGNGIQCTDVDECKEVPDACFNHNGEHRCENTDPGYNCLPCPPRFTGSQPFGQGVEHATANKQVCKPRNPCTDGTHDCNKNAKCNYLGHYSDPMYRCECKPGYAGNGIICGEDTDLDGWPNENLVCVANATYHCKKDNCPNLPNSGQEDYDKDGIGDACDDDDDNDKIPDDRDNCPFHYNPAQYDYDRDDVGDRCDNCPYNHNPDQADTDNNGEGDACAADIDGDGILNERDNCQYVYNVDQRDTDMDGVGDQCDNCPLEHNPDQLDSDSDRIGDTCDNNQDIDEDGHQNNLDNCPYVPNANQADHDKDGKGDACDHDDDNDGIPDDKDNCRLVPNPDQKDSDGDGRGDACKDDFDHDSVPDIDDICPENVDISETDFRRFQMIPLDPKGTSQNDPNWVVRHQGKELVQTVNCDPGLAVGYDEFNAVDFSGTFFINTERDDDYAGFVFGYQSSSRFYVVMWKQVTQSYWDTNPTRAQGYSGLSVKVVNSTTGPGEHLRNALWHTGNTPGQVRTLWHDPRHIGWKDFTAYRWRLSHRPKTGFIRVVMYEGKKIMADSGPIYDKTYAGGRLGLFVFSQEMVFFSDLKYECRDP

Target: human CD36 ectodomain (residues 35-439) with C-terminal BAP tag, biotinylated (human) (UniProt P16671)
Experiment: SPR; competition: biotinylated CD36 immobilised on CAPture chip; CIDRα protein injected with 500 s association time, followed by 400 nM thrombospondin-1; 25 °C, 20 mM HEPES pH 7.5, 0.15 M NaCl, 0.005% Tween20; both purified

binding: binds
Substance: Recombinant Human Thrombospondin-1 (from UniProt P07996 19-1170) (ligand)
